Laboratory results reported in the supplement of paper PMC10849652.
The other results are listed elsewhere or left out.

Protein sequences, listed by entry. Tags and fused reporters are not part of them. Lines headed by an entry give the natural chain unless they say otherwise; changes in a name come on top.
UniProt Q9BPZ3: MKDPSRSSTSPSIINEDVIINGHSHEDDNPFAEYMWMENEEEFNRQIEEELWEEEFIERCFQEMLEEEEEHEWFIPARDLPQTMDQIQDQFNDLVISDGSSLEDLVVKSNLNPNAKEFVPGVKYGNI
UniProt Q9BZF1: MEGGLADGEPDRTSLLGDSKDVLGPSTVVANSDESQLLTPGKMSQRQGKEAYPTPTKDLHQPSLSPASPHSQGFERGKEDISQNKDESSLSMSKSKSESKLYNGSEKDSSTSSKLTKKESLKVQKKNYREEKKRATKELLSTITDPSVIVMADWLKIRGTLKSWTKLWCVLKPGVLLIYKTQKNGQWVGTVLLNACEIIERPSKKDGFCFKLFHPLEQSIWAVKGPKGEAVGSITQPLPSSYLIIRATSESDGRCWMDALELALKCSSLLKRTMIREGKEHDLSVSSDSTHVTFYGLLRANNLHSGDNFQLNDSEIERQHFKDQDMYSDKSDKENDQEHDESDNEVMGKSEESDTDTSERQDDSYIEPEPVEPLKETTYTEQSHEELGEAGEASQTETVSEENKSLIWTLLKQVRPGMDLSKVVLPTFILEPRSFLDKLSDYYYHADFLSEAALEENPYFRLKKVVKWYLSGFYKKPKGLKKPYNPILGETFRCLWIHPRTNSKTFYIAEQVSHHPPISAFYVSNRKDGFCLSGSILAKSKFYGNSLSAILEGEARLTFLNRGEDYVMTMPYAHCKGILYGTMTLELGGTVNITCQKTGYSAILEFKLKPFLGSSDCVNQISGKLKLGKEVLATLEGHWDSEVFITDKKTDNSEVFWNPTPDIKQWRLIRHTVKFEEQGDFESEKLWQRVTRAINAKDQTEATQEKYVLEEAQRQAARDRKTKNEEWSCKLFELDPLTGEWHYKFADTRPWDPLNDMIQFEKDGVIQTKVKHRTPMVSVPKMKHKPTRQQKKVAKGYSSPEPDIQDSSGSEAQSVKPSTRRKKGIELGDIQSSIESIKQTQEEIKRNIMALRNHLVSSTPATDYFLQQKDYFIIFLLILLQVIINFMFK
UniProt Q6PK18: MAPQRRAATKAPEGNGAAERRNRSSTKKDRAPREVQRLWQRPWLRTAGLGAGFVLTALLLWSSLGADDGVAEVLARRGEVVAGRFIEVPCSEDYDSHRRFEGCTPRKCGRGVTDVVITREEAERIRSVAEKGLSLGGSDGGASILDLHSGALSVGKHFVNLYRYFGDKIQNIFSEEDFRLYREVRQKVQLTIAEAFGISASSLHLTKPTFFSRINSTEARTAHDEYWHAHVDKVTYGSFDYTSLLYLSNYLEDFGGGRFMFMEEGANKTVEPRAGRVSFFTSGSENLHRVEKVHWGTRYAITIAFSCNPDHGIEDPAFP
UniProt O43929: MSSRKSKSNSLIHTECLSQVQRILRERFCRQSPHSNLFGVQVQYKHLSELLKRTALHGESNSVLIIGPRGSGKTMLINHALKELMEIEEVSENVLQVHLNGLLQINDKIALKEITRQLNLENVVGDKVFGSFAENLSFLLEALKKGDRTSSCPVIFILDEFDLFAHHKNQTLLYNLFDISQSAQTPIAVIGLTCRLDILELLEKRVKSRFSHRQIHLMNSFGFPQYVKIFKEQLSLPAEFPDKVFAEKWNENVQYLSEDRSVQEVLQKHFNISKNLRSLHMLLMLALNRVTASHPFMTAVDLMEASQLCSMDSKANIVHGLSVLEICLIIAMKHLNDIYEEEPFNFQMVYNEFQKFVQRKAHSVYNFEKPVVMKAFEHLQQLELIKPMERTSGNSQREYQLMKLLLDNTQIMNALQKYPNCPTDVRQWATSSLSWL
UniProt Q92882: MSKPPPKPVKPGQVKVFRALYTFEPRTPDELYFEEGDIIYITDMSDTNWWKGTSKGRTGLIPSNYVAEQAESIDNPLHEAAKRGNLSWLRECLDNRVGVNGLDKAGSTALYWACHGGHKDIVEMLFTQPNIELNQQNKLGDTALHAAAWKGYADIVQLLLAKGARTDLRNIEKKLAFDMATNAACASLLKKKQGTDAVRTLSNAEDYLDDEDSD
UniProt Q96GU1: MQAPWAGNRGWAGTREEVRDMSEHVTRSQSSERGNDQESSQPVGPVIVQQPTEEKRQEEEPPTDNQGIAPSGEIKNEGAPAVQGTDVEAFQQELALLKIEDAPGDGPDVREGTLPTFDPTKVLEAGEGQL
UniProt Q9NRP0: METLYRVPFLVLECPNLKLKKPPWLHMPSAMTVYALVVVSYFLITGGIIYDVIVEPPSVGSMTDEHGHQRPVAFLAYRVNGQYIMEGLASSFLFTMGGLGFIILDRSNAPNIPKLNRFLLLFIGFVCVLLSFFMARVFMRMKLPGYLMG
UniProt Q96E52: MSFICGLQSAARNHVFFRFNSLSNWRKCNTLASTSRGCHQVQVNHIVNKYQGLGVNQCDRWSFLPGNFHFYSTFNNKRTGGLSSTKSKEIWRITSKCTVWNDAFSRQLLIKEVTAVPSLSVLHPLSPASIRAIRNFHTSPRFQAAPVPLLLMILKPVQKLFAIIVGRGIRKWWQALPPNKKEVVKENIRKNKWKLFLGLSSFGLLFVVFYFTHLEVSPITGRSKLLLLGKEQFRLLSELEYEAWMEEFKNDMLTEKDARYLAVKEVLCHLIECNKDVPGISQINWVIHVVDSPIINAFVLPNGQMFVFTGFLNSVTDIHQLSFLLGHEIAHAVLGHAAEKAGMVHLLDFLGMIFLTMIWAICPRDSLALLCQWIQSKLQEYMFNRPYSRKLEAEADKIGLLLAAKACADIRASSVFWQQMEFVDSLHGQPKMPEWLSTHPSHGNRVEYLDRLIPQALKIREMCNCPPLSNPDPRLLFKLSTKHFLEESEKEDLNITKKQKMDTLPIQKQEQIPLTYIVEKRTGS
UniProt P13674: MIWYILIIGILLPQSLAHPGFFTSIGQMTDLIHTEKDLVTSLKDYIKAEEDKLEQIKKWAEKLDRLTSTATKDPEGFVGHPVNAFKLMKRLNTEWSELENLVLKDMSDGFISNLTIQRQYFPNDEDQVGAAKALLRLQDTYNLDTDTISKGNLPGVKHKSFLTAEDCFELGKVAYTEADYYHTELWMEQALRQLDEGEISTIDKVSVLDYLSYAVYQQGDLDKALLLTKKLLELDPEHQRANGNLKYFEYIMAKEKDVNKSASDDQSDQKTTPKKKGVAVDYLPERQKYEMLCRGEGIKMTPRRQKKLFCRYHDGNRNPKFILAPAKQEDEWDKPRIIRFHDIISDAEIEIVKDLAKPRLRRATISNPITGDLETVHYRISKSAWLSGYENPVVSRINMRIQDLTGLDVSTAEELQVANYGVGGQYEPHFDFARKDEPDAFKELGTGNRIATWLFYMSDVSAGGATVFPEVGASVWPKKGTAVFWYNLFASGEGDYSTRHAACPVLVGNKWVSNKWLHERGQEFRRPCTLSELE
UniProt Q8TEM1: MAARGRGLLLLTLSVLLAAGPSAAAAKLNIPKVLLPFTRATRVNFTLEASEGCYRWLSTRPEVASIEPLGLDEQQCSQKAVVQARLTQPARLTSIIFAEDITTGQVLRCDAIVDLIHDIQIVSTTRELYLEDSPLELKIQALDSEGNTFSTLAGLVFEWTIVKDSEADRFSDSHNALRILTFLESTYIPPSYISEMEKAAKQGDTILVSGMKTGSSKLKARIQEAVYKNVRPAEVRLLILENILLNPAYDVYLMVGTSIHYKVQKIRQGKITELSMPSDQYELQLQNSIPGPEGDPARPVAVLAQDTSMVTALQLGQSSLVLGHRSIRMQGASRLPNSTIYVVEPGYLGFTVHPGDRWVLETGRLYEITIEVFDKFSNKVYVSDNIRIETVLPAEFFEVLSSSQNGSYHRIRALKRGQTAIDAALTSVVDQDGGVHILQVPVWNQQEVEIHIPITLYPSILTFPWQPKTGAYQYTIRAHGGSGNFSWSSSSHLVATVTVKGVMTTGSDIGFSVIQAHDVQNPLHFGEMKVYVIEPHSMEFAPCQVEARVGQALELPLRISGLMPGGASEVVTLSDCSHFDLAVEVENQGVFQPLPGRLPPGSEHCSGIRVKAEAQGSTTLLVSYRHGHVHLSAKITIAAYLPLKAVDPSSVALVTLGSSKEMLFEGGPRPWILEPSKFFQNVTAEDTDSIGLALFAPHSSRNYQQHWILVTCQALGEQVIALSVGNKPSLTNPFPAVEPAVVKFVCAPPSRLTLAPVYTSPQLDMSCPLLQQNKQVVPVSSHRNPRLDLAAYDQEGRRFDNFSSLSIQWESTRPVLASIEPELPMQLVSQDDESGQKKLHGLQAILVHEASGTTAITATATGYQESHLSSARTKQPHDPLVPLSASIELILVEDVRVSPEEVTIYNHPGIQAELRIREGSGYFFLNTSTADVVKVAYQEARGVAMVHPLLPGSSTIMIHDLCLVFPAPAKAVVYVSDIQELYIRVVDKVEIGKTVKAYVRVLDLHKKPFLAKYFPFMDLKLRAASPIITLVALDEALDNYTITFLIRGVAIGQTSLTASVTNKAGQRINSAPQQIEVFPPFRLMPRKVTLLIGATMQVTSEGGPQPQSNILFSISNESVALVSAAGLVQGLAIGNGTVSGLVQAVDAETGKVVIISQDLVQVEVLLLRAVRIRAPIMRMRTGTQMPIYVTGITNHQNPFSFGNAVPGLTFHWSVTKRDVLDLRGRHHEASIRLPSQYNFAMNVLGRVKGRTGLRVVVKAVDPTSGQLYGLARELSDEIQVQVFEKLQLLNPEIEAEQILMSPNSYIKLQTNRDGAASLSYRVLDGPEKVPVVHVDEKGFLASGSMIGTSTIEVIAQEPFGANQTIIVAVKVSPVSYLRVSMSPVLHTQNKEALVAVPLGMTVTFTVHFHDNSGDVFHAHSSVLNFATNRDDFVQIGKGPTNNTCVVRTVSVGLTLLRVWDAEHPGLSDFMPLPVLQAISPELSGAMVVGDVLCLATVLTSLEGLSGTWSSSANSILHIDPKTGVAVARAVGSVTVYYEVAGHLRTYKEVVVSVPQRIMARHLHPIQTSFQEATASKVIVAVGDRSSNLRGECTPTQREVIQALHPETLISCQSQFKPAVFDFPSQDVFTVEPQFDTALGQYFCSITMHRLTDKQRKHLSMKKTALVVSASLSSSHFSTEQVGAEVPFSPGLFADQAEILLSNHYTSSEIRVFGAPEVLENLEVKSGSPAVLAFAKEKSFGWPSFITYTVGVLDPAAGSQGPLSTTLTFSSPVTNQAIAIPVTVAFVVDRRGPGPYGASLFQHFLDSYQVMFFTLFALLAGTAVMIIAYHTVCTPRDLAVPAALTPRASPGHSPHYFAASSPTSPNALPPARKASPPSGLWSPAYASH
UniProt Q9NP74: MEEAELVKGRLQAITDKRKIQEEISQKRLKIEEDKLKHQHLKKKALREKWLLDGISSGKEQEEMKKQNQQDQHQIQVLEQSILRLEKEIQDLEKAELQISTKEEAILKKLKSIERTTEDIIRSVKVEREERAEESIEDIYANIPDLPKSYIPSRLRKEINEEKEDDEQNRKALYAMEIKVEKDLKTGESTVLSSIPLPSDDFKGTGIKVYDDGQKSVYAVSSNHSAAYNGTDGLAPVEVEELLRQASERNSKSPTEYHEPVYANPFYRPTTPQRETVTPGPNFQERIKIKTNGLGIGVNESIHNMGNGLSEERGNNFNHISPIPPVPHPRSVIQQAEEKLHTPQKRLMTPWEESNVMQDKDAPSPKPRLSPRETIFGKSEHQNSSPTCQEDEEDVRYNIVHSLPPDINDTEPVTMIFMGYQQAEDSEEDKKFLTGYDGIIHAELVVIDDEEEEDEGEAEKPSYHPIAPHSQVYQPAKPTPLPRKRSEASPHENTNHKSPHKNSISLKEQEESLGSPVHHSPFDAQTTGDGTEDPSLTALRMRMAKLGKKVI
UniProt Q9BWT3: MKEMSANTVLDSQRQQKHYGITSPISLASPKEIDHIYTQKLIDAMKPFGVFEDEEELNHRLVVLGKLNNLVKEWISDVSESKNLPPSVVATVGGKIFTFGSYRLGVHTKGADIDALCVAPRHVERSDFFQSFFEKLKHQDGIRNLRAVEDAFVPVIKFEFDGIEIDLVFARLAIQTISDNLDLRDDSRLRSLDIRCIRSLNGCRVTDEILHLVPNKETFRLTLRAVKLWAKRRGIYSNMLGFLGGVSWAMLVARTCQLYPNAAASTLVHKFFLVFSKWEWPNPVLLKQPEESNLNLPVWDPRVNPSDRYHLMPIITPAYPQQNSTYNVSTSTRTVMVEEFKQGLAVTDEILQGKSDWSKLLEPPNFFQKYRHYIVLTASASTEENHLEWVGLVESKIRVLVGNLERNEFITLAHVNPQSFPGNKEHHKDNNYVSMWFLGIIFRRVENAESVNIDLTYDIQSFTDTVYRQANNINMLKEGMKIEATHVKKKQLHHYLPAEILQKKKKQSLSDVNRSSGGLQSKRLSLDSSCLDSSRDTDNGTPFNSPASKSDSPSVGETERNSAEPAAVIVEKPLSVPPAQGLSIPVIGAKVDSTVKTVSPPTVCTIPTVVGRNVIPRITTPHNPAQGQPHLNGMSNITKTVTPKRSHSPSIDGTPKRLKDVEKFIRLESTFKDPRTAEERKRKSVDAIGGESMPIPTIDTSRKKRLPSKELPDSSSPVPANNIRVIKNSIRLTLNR

Compound: NCC(=O)Nc1ccc(-n2nc(C(F)(F)F)cc2-c2ccc3c(ccc4ccccc43)c2)cc1
Assay: log2 fold change, soluble protein after heating vs DMSO (PISA); higher = thermal stabilisation; K562 lysate, 10 uM; active = over 0.2 and 3.5 SD of the protein, either way, in both replicates (recomputed)
Outline: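 K562 pellets were dounce-homogenised in PBS pH 7.4 with 1 mM MgCl2, and the crude extract at 1 mg/mL protein was treated with 10 μM compound for 30 min. Aliquots were heated for 3 min across 48°C-58°C, pooled, and brought to 0.5% NP-40 at 4°C; soluble protein was the supernatant after 21,000xg for 90 min. Soluble protein was quantified by TMTpro 16plex LC-MS/MS with channel sums equalised, and reported as log2 fold change in thermal stability against DMSO controls, with values from duplicates.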

Target | log2 fold change
PARL (UniProt Q9H300) | inactive: -0.065
ORC5 (UniProt O43913) | inactive: 0.023
PAGE1 (UniProt O75459) | inactive: 0.028
PAIP2 (UniProt Q9BPZ3) | inactive: 0.033
OSBPL8 (UniProt Q9BZF1) | inactive: -0.007
OGFOD3 (UniProt Q6PK18) | inactive: 0.01
NXF1 (UniProt Q9UBU9) | inactive: 0.009
ORC2 (UniProt Q13416) | inactive: 0
ORC4 (UniProt O43929) | inactive: 0.073
OSTF1 (UniProt Q92882) | inactive: -0.01
NUS1 (UniProt Q96E22) | inactive: 0.077
PAGE5 (UniProt Q96GU1) | inactive: -0.076
PANK1 (UniProt Q8TE04) | inactive: 0.01
OSTC isoform 2 (UniProt Q9NRP0) | inactive: -0.013
OMA1 (UniProt Q96E52) | inactive: 0.032
OXA1L (UniProt Q15070) | inactive: -0.043
P2RX4 isoform 2 (UniProt Q99571) | inactive: 0.203

A run of entries of the results above, for reference:
Target | log2 fold change
OSTF1 (UniProt Q92882) | inactive: -0.01
NUS1 (UniProt Q96E22) | inactive: 0.077

Remaining list, next part:

Target | log2 fold change
OTULIN (UniProt Q96BN8) | inactive: -0.022
PAPOLA (UniProt P51003) | inactive: 0.028
OBSL1 (UniProt O75147) | inactive: 0.021
PABPC1 (UniProt P11940) | inactive: -0.012
P4HA1 (UniProt P13674) | inactive: 0.002
NUP210 (UniProt Q8TEM1) | inactive: -0.006
PAK1 (UniProt Q13153) | inactive: 0.008
PALMD (UniProt Q9NP74) | inactive: 0.018
OBI1 (UniProt Q5W0B1) | inactive: 0.132
OCIAD1 (UniProt Q9NX40) | inactive: -0.033
PAN2 isoform 2 (UniProt Q504Q3) | inactive: 0.11
PAIP1 (UniProt Q9H074) | inactive: -0.018
OTUD5 isoform 5 (UniProt Q96G74) | inactive: 0.002
PAK4 (UniProt O96013) | inactive: -0.003
PAPOLG (UniProt Q9BWT3) | inactive: -0.037
OXNAD1 (UniProt Q96HP4) | inactive: 0.036
